Measurements from patent publication US5861254.
For at least one entry, the source does not settle the construct or the ends of the probe.

Assays:
[1] = biological target: T1, L-selectin-IgG1 Fc fusion (LS-Rg) (Homo sapiens) (UniProt P14151); test: binding assay; conditions: 2'-F pyrimidines; CITED from WO96/40703; LF1613 from bead SELEX against LsRg; purified recombinant protein
T1 sequence: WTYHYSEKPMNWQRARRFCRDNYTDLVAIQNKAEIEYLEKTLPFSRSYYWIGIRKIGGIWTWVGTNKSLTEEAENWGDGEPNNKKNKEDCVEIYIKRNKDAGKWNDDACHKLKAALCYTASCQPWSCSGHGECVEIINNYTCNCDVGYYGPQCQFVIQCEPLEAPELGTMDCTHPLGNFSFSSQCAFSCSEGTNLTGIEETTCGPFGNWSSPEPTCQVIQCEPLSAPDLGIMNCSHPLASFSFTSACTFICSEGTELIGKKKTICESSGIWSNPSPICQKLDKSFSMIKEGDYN

[2] = biological target: T1, L-selectin-IgG1 Fc fusion (LS-Rg) (Homo sapiens); test: SPR; conditions: 2'-F pyrimidines; SHMCK buffer (1 mM Ca, 1 mM Mg) 0.005% P20; ka 1.0e5, kd 2.8e-3; rebinding affects kd; purified recombinant protein

Sequence: GGGAGGACGAUGCGGUGCUAUUCUUAAGCGGCGUGUUUUUCAAGCCAAUAUCAUCAGACGACUCGCCCGA [LF1613]
- Kd [1]: 0.1 nM
- Kd [2]: 28 nM
